Data as given in PubChem BioAssay AID652272 (Drosophila RNAi Screening Center, 2013).
The deposit covers about 21,000 reagents; this is a random part of those with a known target gene and a result. Over the whole deposit, 503 (2.4%) are marked active. 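Raw plate light values, not normalised; calls rest on replicate z-scores that were not deposited; hits include reporter decreases as well as increases.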 Unmarked entries are inactive. The numbers tell different reagents against one gene apart. A plus sign joins genes that one reagent is predicted to hit. The record does not give: the amount of reagent, the time to read-out.

Screen: 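Genes whose knock-down decreases or increases Hedgehog reporter output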 (primary screen)
System: Drosophila clone 8 (Cl8) cells
Reagent: long dsRNA against Drosophila genes
Read-out: 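Firefly light from a Hedgehog-responsive ptc promoter reporter and Renilla reference light, both read on a plate reader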
Reading the numbers: firefly Hh reporter signal: higher = more ptc reporter light; Renilla reference signal: higher = more Renilla control light
Call rule: 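Called a hit if the two-replicate mean z-score lies below -2 or above +3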
Calls: active = hit: reporter lowered or raised; inactive = not a hit

With CG14891, what was measured?
firefly Hh reporter signal, replicate 1: 1.33e5; firefly Hh reporter signal, replicate 2: 65184; Renilla reference signal, replicate 1: 5128; Renilla reference signal, replicate 2: 2784

What is on record for CG14913?
firefly Hh reporter signal, replicate 1: 1.39e5; firefly Hh reporter signal, replicate 2: 54251; Renilla reference signal, replicate 1: 3440; Renilla reference signal, replicate 2: 4989

With CG16964, what does the deposit list?
firefly Hh reporter signal, replicate 1: 96512; firefly Hh reporter signal, replicate 2: 63189; Renilla reference signal, replicate 1: 2137; Renilla reference signal, replicate 2: 4921

With Vha100-5 (Vacuolar H[+] ATPase 100kD subunit 5), what does the deposit list?
firefly Hh reporter signal, replicate 1: 1.22e5; firefly Hh reporter signal, replicate 2: 48006; Renilla reference signal, replicate 1: 3297; Renilla reference signal, replicate 2: 3764

With Mad, what does the deposit list?
firefly Hh reporter signal, replicate 1: 1.30e5; firefly Hh reporter signal, replicate 2: 58679; Renilla reference signal, replicate 1: 3065; Renilla reference signal, replicate 2: 5803

What did the screen give for CG7139?
firefly Hh reporter signal, replicate 1: 1.05e5; firefly Hh reporter signal, replicate 2: 92166; Renilla reference signal, replicate 1: 3971; Renilla reference signal, replicate 2: 3954

What did the screen give for Trs23 (TRAPP subunit 23)?
firefly Hh reporter signal, replicate 1: 90524; firefly Hh reporter signal, replicate 2: 62596; Renilla reference signal, replicate 1: 1984; Renilla reference signal, replicate 2: 5370

With Gr21a (Gustatory receptor 21a), what was measured?
firefly Hh reporter signal, replicate 1: 1.05e5; firefly Hh reporter signal, replicate 2: 79896; Renilla reference signal, replicate 1: 2688; Renilla reference signal, replicate 2: 1984

For beat-Ib (beaten path Ib), what was measured?
firefly Hh reporter signal, replicate 1: 1.09e5; firefly Hh reporter signal, replicate 2: 56854; Renilla reference signal, replicate 1: 2797; Renilla reference signal, replicate 2: 4772

How did the screen score CG30054?
firefly Hh reporter signal, replicate 1: 1.95e5; firefly Hh reporter signal, replicate 2: 2.31e5; Renilla reference signal, replicate 1: 4780; Renilla reference signal, replicate 2: 11081

For CG4199, what does the deposit list?
firefly Hh reporter signal, replicate 1: 1.03e5; firefly Hh reporter signal, replicate 2: 61208; Renilla reference signal, replicate 1: 1933; Renilla reference signal, replicate 2: 1805

How did the screen score Trf4 (TBP-related factor 4)?
firefly Hh reporter signal, replicate 1: 1.15e5; firefly Hh reporter signal, replicate 2: 68596; Renilla reference signal, replicate 1: 2864; Renilla reference signal, replicate 2: 1716

What is on record for GstT2 (Glutathione S transferase T2)?
firefly Hh reporter signal, replicate 1: 1.03e5; firefly Hh reporter signal, replicate 2: 54473; Renilla reference signal, replicate 1: 2699; Renilla reference signal, replicate 2: 4833

For Mer (Merlin), how do the results read?
firefly Hh reporter signal, replicate 1: 79573; firefly Hh reporter signal, replicate 2: 77725; Renilla reference signal, replicate 1: 1972; Renilla reference signal, replicate 2: 2035

With PIG-S (Phosphatidylinositol glycan anchor biosynthesis class S) #1, what was measured?
firefly Hh reporter signal, replicate 1: 99383; firefly Hh reporter signal, replicate 2: 78458; Renilla reference signal, replicate 1: 3760; Renilla reference signal, replicate 2: 2968

For PIG-S (Phosphatidylinositol glycan anchor biosynthesis class S) #2, what was measured?
firefly Hh reporter signal, replicate 1: 5.91e5; firefly Hh reporter signal, replicate 2: 1.24e5; Renilla reference signal, replicate 1: 30361; Renilla reference signal, replicate 2: 4001

With PIG-S (Phosphatidylinositol glycan anchor biosynthesis class S) #3, what was measured?
firefly Hh reporter signal, replicate 1: 1.27e5; firefly Hh reporter signal, replicate 2: 1.15e5; Renilla reference signal, replicate 1: 5341; Renilla reference signal, replicate 2: 4321

For Ptp69D (Protein tyrosine phosphatase 69D), what was measured?
firefly Hh reporter signal, replicate 1: 20848; firefly Hh reporter signal, replicate 2: 67657; firefly Hh reporter signal, replicate 3: 74860; Renilla reference signal, replicate 1: 7121; Renilla reference signal, replicate 2: 5584

Sorted by “firefly Hh reporter signal, replicate 1” (highest first): some entries from above.
CG14913 — firefly Hh reporter signal, replicate 1 = 1.39e5; firefly Hh reporter signal, replicate 2 = 54251; Renilla reference signal, replicate 1 = 3440; Renilla reference signal, replicate 2 = 4989
Vha100-5 (Vacuolar H[+] ATPase 100kD subunit 5) — firefly Hh reporter signal, replicate 1 = 1.22e5; firefly Hh reporter signal, replicate 2 = 48006; Renilla reference signal, replicate 1 = 3297; Renilla reference signal, replicate 2 = 3764
CG16964 — firefly Hh reporter signal, replicate 1 = 96512; firefly Hh reporter signal, replicate 2 = 63189; Renilla reference signal, replicate 1 = 2137; Renilla reference signal, replicate 2 = 4921

The results go on:
What did the screen give for clt (cricklet)?
firefly Hh reporter signal, replicate 1: 74525; firefly Hh reporter signal, replicate 2: 54038; Renilla reference signal, replicate 1: 2073; Renilla reference signal, replicate 2: 5175

With CG12025, what was measured?
firefly Hh reporter signal, replicate 1: 67240; firefly Hh reporter signal, replicate 2: 42529; Renilla reference signal, replicate 1: 2109; Renilla reference signal, replicate 2: 3289

With rho-5 (rhomboid-5), what was measured?
firefly Hh reporter signal, replicate 1: 1.42e5; firefly Hh reporter signal, replicate 2: 91904; Renilla reference signal, replicate 1: 3835; Renilla reference signal, replicate 2: 7761

With CG18081, what does the deposit list?
firefly Hh reporter signal, replicate 1: 93458; Renilla reference signal, replicate 1: 4483; Renilla reference signal, replicate 2: 2939

How did the screen score SREBP (Sterol regulatory element binding protein)?
firefly Hh reporter signal, replicate 1: 42140; firefly Hh reporter signal, replicate 2: 39472; Renilla reference signal, replicate 1: 2080; Renilla reference signal, replicate 2: 1325

For CG31673, what was measured?
firefly Hh reporter signal, replicate 1: 91944; firefly Hh reporter signal, replicate 2: 80340; Renilla reference signal, replicate 1: 3747; Renilla reference signal, replicate 2: 3264

For CG42354 + CG42353, what was measured?
firefly Hh reporter signal, replicate 1: 59114; firefly Hh reporter signal, replicate 2: 50519; Renilla reference signal, replicate 1: 1842; Renilla reference signal, replicate 2: 1221

For Or69a (Odorant receptor 69a), what was measured?
firefly Hh reporter signal, replicate 1: 41505; firefly Hh reporter signal, replicate 2: 35040; firefly Hh reporter signal, replicate 3: 48180; Renilla reference signal, replicate 1: 3240; Renilla reference signal, replicate 2: 3297

For CG31211 #1, how do the results read?
firefly Hh reporter signal, replicate 1: 1.97e5; firefly Hh reporter signal, replicate 2: 5.20e5; firefly Hh reporter signal, replicate 3: 1.16e5; Renilla reference signal, replicate 1: 7069; Renilla reference signal, replicate 2: 31843

For CG31211 #2, how do the results read?
firefly Hh reporter signal, replicate 1: 93819; firefly Hh reporter signal, replicate 2: 1.14e5; Renilla reference signal, replicate 1: 3245; Renilla reference signal, replicate 2: 3904
